Laboratory results reported in the supplement of paper PMC10849652.
The other results are listed elsewhere or left out.

Protein sequences, listed by entry. Tags and fused reporters are not part of them. Lines headed by an entry give the natural chain unless they say otherwise; changes in a name come on top.
UniProt O95292, whole entry, looked up: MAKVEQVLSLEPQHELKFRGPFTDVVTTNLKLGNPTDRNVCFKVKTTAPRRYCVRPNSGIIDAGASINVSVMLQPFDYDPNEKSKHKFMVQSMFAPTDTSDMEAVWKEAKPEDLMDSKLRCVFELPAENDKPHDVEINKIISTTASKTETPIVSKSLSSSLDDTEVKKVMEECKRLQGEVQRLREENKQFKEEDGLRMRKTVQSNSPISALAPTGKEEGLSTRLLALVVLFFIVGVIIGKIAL
UniProt O60763: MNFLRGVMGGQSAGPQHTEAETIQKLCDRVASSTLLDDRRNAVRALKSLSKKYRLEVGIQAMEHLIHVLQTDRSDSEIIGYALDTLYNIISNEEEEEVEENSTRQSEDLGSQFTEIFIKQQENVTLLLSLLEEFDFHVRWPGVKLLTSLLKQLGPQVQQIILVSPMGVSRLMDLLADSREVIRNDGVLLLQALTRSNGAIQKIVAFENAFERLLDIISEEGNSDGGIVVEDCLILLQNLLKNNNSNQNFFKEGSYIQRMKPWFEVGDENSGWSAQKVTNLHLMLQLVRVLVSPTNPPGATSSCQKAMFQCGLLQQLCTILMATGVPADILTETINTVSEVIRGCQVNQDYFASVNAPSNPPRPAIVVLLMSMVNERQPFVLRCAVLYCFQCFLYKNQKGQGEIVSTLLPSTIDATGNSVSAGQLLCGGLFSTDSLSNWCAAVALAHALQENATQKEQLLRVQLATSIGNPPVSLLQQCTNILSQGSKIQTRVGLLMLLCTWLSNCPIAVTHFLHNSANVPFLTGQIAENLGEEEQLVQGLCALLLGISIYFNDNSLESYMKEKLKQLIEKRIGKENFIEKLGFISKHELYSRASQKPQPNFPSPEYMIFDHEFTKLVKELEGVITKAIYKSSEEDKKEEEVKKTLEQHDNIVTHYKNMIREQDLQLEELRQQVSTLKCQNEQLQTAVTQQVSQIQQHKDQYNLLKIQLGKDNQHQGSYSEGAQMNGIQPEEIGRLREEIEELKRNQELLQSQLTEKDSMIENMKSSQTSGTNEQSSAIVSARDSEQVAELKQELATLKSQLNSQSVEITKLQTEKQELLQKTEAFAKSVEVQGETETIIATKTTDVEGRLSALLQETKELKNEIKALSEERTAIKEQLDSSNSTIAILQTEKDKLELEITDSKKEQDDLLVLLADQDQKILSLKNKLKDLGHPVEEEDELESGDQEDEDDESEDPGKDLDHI
UniProt Q86UV5: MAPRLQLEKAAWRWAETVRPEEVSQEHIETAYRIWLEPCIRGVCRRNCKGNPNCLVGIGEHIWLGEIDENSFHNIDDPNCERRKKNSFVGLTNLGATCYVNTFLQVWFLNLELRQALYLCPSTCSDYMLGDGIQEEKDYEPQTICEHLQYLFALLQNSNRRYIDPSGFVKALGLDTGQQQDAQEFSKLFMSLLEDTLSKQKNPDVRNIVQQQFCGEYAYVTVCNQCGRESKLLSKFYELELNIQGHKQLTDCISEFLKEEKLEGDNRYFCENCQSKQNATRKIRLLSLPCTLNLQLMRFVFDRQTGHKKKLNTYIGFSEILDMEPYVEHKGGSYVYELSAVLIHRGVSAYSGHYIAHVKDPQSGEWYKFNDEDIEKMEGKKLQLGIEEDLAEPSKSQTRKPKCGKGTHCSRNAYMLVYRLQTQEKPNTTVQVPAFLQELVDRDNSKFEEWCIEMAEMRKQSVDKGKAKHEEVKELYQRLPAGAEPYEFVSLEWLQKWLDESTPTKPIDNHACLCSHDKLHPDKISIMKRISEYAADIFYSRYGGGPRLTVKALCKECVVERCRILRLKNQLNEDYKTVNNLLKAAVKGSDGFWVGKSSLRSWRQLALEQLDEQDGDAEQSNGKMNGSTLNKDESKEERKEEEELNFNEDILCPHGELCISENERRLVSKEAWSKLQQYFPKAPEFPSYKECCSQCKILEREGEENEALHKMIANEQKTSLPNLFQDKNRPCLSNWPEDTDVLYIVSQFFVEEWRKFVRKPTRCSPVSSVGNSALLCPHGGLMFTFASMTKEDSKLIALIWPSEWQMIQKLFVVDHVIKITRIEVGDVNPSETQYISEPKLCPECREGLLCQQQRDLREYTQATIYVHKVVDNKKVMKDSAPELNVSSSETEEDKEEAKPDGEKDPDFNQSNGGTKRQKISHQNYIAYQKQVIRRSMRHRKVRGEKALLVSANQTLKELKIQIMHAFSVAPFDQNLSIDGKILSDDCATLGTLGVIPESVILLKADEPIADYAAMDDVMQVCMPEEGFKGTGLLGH
UniProt P14927: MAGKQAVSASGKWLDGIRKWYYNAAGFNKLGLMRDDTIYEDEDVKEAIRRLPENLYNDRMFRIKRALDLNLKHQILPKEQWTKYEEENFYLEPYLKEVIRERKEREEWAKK
UniProt P54578: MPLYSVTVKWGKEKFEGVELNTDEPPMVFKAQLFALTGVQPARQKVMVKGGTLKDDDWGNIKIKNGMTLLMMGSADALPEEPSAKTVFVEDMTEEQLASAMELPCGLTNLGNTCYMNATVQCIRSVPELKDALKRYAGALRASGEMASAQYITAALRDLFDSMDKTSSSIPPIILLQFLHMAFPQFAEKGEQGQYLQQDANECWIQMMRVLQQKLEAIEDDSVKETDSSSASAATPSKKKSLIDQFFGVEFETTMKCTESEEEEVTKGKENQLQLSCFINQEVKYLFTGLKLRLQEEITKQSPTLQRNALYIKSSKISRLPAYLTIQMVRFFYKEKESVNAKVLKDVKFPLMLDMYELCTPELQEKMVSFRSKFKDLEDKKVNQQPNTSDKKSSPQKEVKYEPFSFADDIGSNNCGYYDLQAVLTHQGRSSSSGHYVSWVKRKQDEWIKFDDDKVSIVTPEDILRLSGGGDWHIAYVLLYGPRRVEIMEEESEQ
UniProt Q9UBK9, whole entry, looked up: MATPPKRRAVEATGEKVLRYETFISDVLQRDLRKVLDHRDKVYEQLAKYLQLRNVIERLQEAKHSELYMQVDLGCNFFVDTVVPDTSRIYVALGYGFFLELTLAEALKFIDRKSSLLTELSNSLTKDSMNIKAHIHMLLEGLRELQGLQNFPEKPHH
UniProt Q9Y4E8: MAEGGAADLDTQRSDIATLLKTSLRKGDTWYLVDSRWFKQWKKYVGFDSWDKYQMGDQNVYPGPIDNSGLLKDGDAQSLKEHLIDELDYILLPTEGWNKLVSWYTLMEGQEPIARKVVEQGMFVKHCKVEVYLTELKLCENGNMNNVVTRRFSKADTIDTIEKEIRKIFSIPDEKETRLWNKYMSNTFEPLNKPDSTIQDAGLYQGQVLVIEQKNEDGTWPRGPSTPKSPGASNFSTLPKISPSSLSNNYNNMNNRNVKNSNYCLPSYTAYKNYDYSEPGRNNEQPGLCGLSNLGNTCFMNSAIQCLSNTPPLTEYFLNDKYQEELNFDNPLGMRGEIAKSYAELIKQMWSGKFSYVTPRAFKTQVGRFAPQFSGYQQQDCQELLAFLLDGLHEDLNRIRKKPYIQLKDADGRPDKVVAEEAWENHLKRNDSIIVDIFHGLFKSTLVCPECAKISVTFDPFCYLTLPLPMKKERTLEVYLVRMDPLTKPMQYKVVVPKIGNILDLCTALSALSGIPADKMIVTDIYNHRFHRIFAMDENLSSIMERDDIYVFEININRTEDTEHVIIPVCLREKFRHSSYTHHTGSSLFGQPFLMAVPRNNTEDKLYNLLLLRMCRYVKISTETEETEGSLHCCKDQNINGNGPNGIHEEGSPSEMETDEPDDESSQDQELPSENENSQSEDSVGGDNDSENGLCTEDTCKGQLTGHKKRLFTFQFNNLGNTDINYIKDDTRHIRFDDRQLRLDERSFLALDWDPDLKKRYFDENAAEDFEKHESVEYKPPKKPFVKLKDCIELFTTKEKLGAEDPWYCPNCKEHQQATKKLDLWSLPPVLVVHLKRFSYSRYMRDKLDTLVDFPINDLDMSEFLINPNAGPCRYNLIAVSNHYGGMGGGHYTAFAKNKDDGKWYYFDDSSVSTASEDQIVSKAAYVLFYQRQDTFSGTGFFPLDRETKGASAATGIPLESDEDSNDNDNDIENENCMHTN
UniProt Q8TAA9: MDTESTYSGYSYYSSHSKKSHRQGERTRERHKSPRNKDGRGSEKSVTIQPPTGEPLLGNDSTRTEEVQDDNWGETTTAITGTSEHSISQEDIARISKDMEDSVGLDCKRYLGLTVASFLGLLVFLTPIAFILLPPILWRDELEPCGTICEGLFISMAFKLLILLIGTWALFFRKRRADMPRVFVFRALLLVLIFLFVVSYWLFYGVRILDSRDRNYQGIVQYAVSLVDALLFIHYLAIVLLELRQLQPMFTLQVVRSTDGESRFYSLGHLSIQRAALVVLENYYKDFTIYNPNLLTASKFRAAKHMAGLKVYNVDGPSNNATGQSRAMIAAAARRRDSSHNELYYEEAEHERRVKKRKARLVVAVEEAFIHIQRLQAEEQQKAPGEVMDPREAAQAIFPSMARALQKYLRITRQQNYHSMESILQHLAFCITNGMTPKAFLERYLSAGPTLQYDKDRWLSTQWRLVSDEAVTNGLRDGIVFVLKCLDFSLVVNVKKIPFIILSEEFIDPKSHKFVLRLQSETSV
UniProt P63027, whole entry, looked up: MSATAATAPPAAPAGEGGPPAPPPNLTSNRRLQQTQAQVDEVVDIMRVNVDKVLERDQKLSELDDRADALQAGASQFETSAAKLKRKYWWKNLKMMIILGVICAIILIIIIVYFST
UniProt Q08AM6: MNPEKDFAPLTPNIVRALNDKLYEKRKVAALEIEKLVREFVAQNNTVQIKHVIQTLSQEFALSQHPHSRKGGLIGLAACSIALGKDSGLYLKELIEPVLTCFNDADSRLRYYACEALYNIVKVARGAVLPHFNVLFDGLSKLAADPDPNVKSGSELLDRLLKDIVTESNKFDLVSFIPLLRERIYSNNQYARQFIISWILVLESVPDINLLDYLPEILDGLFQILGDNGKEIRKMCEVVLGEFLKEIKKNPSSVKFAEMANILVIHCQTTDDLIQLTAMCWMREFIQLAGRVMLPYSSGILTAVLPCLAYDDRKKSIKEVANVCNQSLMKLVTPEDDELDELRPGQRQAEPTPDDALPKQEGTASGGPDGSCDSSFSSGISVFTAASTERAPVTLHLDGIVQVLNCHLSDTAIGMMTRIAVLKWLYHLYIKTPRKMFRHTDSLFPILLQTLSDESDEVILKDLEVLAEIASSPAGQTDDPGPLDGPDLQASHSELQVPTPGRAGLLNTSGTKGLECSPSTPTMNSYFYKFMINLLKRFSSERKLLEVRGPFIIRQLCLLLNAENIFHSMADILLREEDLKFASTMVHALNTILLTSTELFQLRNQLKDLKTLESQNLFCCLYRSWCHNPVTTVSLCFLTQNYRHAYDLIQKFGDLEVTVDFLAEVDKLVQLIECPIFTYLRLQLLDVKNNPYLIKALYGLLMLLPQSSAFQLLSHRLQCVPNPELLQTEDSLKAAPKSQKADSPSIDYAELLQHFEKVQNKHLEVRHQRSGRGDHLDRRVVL
UniProt O14949: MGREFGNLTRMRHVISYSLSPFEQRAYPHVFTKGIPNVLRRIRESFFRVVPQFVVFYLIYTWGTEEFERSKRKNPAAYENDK
UniProt Q9NZ43: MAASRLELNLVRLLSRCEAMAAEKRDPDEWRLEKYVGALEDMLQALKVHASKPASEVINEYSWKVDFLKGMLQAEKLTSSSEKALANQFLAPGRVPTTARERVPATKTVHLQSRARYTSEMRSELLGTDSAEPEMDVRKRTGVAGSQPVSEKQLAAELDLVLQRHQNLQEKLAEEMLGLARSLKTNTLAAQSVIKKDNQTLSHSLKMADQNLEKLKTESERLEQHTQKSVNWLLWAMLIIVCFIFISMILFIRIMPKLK
UniProt Q9P2Y5: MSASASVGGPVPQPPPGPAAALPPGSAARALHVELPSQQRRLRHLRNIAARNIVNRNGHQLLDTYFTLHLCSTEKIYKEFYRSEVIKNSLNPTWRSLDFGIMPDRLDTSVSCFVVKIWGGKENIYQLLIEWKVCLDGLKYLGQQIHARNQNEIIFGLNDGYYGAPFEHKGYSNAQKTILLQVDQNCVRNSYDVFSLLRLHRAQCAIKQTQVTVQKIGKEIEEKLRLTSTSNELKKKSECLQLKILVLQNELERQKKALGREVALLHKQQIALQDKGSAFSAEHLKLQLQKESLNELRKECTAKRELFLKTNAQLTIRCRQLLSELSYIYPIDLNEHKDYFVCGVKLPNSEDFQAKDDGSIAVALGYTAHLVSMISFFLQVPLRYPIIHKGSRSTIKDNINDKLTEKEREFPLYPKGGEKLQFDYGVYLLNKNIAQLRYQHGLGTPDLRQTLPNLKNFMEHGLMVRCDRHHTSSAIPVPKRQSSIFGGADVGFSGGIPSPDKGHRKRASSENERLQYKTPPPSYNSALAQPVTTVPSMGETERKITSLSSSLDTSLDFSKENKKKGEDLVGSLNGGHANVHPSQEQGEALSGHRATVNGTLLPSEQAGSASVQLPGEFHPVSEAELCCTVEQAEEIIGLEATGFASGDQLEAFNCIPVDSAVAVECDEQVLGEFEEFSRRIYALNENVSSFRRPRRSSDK

Key:
Assay in all cases: log2 fold change, soluble protein after heating vs DMSO (PISA); higher = thermal stabilisation; K562 lysate, 10 uM; active = over 0.2 and 3.5 SD of the protein, either way, in both replicates (recomputed)
alvocidib = compound: CN1CC[C@H](c2c(O)cc(O)c3c(=O)cc(-c4ccccc4Cl)oc23)[C@H](O)C1 [alvocidib]
How it was run: (§1)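 A 30 min treatment with 10 μM compound was applied to crude K562 extract at 1 mg/mL protein in PBS pH 7.4 with 1 mM MgCl2. Heating for 3 min spanned 48°C-58°C, after which aliquots were pooled, adjusted to 0.5% NP-40 at 4°C and spun at 21,000xg for 90 min. TMTpro 16plex LC-MS/MS of the supernatant, with channel sums equalised, gave values recorded as log-two fold change in thermal stability against solvent controls, from duplicates.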

Tubastatin A = compound: CN1CCc2c(c3ccccc3n2Cc2ccc(C(=O)NO)cc2)C1 [Tubastatin A]
How it was run: as §1

[1] = compound: CNC(=O)C1=CC=CC=C1NC2=NC(=NC=C2Cl)NC3=C(C=C(C=C3)N4CCOCC4)OC
How it was run: as §1

defactinib = compound: CNC(=O)c1ccc(Nc2ncc(C(F)(F)F)c(NCc3nccnc3N(C)S(C)(=O)=O)n2)cc1 [defactinib]
How it was run: as §1

[2] = compound: CNc1nc(-c2ccc3c(N)n[nH]c3c2)cc(N2C[C@@H](C(=O)NC3CCCCC3)CC[C@H]2C)n1
How it was run: as §1

encorafenib = compound: COC(=O)N[C@@H](C)CNc1nccc(-c2cn(C(C)C)nc2-c2cc(Cl)cc(NS(C)(=O)=O)c2F)n1 [encorafenib]
How it was run: as §1

[3] = compound: COC(=O)[C@H](CCSC)NC(=O)C1=C(C=C(C=C1)NC[C@H](CS)N)C2=CC=CC=C2
How it was run: as §1

alisertib = compound: COc1cc(Nc2ncc3c(n2)-c2ccc(Cl)cc2C(c2c(F)cccc2OC)=NC3)ccc1C(=O)O [alisertib]
How it was run: as §1

[4] = compound: COc1cc2nc(-c3cc(F)ccc3O)nc(N[C@@H]3CNC[C@H]3C(C)(C)O)c2cc1OC
How it was run: as §1

gefitinib = compound: COc1cc2ncnc(Nc3ccc(F)c(Cl)c3)c2cc1OCCCN1CCOCC1 [gefitinib]
How it was run: as §1

| Target | log2 fold change (alvocidib) | log2 fold change (Tubastatin A) | log2 fold change [1] | log2 fold change (defactinib) | log2 fold change [2] | log2 fold change (encorafenib) | log2 fold change [3] | log2 fold change (alisertib) | log2 fold change [4] | log2 fold change (gefitinib) |
| --- | --- | --- | --- | --- | --- | --- | --- | --- | --- | --- |
| UNC93B1 (UniProt Q9H1C4) | inactive: 0.032 | inactive: -0.025 | inactive: -0.114 | inactive: -0.079 | inactive: -0.036 | inactive: -0.086 | inactive: 0.237 | inactive: -0.037 | inactive: -0.156 | inactive: -0.164 |
| VAPB (UniProt O95292) | inactive: -0.018 | inactive: 0.015 | inactive: -0.01 | inactive: -0.014 | inactive: -0.015 | inactive: 0.046 | inactive: -0.18 | inactive: 0.003 | inactive: 0.008 | inactive: 0.003 |
| USO1 isoform 2 (UniProt O60763) | inactive: -0.002 | inactive: 0.038 | inactive: 0 | inactive: -0.007 | inactive: -0.003 | inactive: 0.008 | inactive: -0.014 | inactive: 0.004 | inactive: 0.013 | inactive: 0.011 |
| USP48 isoform 8 (UniProt Q86UV5) | inactive: 0.006 | inactive: -0.119 | inactive: 0.019 | inactive: -0.012 | inactive: 0.011 | inactive: -0.003 | inactive: 0.14 | inactive: -0.016 | inactive: 0.003 | inactive: -0.018 |
| UQCRB (UniProt P14927) | inactive: 0 | inactive: 0.033 | inactive: 0 | inactive: 0.036 | inactive: 0.046 | inactive: -0.042 | inactive: -0.028 | inactive: -0.009 | inactive: 0.003 | inactive: 0.001 |
| USP14 (UniProt P54578) | inactive: 0.024 | inactive: 0.014 | inactive: -0.002 | inactive: -0.014 | inactive: 0.027 | inactive: -0.01 | inactive: 0.056 | inactive: 0.013 | inactive: -0.007 | inactive: 0.004 |
| UMPS (UniProt P11172) | inactive: 0.026 | inactive: -0.009 | inactive: 0.002 | inactive: 0.024 | inactive: -0.021 | inactive: -0.017 | inactive: 0.021 | inactive: -0.014 | inactive: 0.004 | inactive: -0.036 |
| UNC13D (UniProt Q70J99) | inactive: 0.015 | inactive: -0.117 | inactive: 0.014 | inactive: 0.026 | inactive: -0.035 | inactive: 0.059 | inactive: 0.054 | inactive: -0.005 | inactive: 0.001 | inactive: -0.034 |
| UXT isoform 2 (UniProt Q9UBK9) | inactive: -0.038 | inactive: 0.081 | inactive: 0.015 | inactive: 0.069 | active: 0.574 | inactive: -0.081 | inactive: 0.025 | inactive: -0.041 | inactive: 0.038 | inactive: 0.04 |
| UFSP2 (UniProt Q9NUQ7) | inactive: 0.034 | inactive: 0.024 | inactive: -0.045 | inactive: 0.022 | inactive: -0.036 | inactive: 0.031 | inactive: 0.055 | inactive: 0.019 | inactive: 0.035 | inactive: -0.031 |
| USP15 (UniProt Q9Y4E8) | inactive: 0.005 | inactive: -0.045 | inactive: -0.017 | inactive: -0.009 | inactive: -0.028 | inactive: -0.019 | inactive: 0.042 | inactive: 0.018 | inactive: -0.015 | inactive: 0.015 |
| USP5 isoform 2 (UniProt P45974) | inactive: 0 | inactive: 0.06 | inactive: 0 | inactive: -0.027 | inactive: -0.024 | inactive: -0.004 | inactive: 0.045 | inactive: -0.025 | inactive: -0.01 | inactive: -0.001 |
| UPF2 (UniProt Q9HAU5) | inactive: -0.008 | inactive: -0.04 | inactive: 0.024 | inactive: -0.007 | inactive: -0.035 | inactive: -0.014 | inactive: 0.005 | inactive: 0.034 | inactive: -0.023 | inactive: -0.004 |
| VANGL1 (UniProt Q8TAA9) | inactive: 0.005 | inactive: 0.088 | inactive: -0.054 | inactive: 0.078 | inactive: 0.054 | inactive: -0.011 | inactive: -0.072 | inactive: -0.023 | inactive: -0.071 | inactive: 0.011 |
| USP7 (UniProt Q93009) | inactive: -0.007 | inactive: -0.097 | inactive: 0.005 | inactive: -0.004 | inactive: -0.081 | inactive: -0.001 | inactive: 0.085 | inactive: 0.005 | inactive: -0.01 | inactive: 0.01 |
| VAMP2 (UniProt P63027) | inactive: 0.019 | inactive: 0.027 | inactive: 0.035 | inactive: 0.112 | inactive: -0.01 | inactive: 0.05 | inactive: -0.057 | inactive: 0.014 | inactive: 0.001 | inactive: 0.018 |
| VCL (UniProt P18206) | inactive: -0.023 | inactive: 0.052 | inactive: -0.019 | inactive: -0.005 | inactive: 0.022 | inactive: 0 | inactive: -0.036 | inactive: 0.004 | inactive: 0.004 | inactive: 0.004 |
| VAC14 (UniProt Q08AM6) | inactive: 0 | inactive: -0.036 | inactive: 0.022 | inactive: 0.007 | inactive: 0.005 | inactive: 0.04 | inactive: -0.051 | inactive: 0.008 | inactive: 0.006 | inactive: 0.003 |
| UQCRC1 (UniProt P31930) | inactive: -0.022 | inactive: 0.061 | inactive: 0.012 | inactive: -0.01 | inactive: 0.026 | inactive: -0.014 | inactive: 0.002 | inactive: -0.007 | inactive: 0.028 | inactive: 0.004 |
| UIMC1 (UniProt Q96RL1) | inactive: -0.032 | inactive: -0.018 | inactive: 0.005 | inactive: -0.034 | inactive: 0.007 | inactive: 0.003 | inactive: -0.046 | inactive: 0.044 | inactive: 0.053 | inactive: 0.036 |
| UQCRQ (UniProt O14949) | inactive: 0 | inactive: 0.009 | inactive: -0.013 | inactive: 0.014 | inactive: -0.026 | inactive: 0.014 | inactive: 0.004 | inactive: 0.022 | inactive: 0.002 | inactive: 0.01 |
| VIPAS39 (UniProt Q9H9C1) | inactive: -0.079 | inactive: -0.066 | inactive: 0.161 | inactive: 0.024 | inactive: 0.306 | inactive: 0.085 | inactive: 0.044 | inactive: -0.039 | inactive: 0.008 | inactive: 0.077 |
| UPF3B (UniProt Q9BZI7) | inactive: -0.105 | inactive: -0.001 | inactive: 0.023 | inactive: -0.015 | inactive: 0.011 | inactive: 0.011 | inactive: 0.049 | inactive: 0.021 | inactive: -0.021 | inactive: -0.038 |
| USE1 (UniProt Q9NZ43) | inactive: 0.019 | inactive: -0.054 | inactive: -0.002 | inactive: 0.064 | inactive: 0.015 | inactive: 0.067 | inactive: -0.037 | inactive: -0.059 | inactive: 0.039 | inactive: -0.026 |
| UVRAG (UniProt Q9P2Y5) | inactive: 0.017 | inactive: -0.008 | inactive: 0.026 | inactive: 0.039 | inactive: -0.035 | inactive: 0.035 | inactive: -0.077 | inactive: 0.029 | inactive: -0.008 | inactive: 0.051 |
| UQCC1 (UniProt Q9NVA1) | inactive: -0.018 | inactive: 0.02 | inactive: -0.012 | inactive: 0.036 | inactive: -0.052 | inactive: -0.007 | inactive: 0.071 | inactive: -0.054 | inactive: -0.017 | inactive: -0.011 |
| VARS2, A0A0G2JL52 | inactive: -0.029 | inactive: 0.03 | inactive: 0.003 | inactive: 0.009 | inactive: -0.028 | inactive: -0.02 | inactive: -0.175 | inactive: 0.022 | inactive: 0.009 | inactive: 0.029 |

Some of the entries above, reformatted.
Target	log2 fold change (alvocidib)	log2 fold change (Tubastatin A)	log2 fold change [1]	log2 fold change (defactinib)	log2 fold change [2]	log2 fold change (encorafenib)	log2 fold change [3]	log2 fold change (alisertib)	log2 fold change [4]	log2 fold change (gefitinib)
USO1 isoform 2 (UniProt O60763)	inactive: -0.002	inactive: 0.038	inactive: 0	inactive: -0.007	inactive: -0.003	inactive: 0.008	inactive: -0.014	inactive: 0.004	inactive: 0.013	inactive: 0.011
USP48 isoform 8 (UniProt Q86UV5)	inactive: 0.006	inactive: -0.119	inactive: 0.019	inactive: -0.012	inactive: 0.011	inactive: -0.003	inactive: 0.14	inactive: -0.016	inactive: 0.003	inactive: -0.018
